Test results published in PMC6051343.
These are yes or no findings as the source states them, for the method shown. For part of these data: Binding seen in cells or lysates may run through a third protein. Some binding calls cover weakened binding; strength is not graded here. For part of these data: Sequences can lack the tags named with a protein. Each block holds one binder with its values, some of them ahead of it.

Tests used:
[1] = molecular target: T1, Psc3 (GAL4 DNA-binding domain bait, pGBKT7) (S. pombe) (UniProt O13816); test: two-hybrid; GAL4 DNA-binding domain baits (pGBKT7) and GAL4 activation domain preys (pGADT7) in S. cerevisiae PJ69-4A; spotted onto SD minimal medium lacking appropriate amino acids
T1 sequence: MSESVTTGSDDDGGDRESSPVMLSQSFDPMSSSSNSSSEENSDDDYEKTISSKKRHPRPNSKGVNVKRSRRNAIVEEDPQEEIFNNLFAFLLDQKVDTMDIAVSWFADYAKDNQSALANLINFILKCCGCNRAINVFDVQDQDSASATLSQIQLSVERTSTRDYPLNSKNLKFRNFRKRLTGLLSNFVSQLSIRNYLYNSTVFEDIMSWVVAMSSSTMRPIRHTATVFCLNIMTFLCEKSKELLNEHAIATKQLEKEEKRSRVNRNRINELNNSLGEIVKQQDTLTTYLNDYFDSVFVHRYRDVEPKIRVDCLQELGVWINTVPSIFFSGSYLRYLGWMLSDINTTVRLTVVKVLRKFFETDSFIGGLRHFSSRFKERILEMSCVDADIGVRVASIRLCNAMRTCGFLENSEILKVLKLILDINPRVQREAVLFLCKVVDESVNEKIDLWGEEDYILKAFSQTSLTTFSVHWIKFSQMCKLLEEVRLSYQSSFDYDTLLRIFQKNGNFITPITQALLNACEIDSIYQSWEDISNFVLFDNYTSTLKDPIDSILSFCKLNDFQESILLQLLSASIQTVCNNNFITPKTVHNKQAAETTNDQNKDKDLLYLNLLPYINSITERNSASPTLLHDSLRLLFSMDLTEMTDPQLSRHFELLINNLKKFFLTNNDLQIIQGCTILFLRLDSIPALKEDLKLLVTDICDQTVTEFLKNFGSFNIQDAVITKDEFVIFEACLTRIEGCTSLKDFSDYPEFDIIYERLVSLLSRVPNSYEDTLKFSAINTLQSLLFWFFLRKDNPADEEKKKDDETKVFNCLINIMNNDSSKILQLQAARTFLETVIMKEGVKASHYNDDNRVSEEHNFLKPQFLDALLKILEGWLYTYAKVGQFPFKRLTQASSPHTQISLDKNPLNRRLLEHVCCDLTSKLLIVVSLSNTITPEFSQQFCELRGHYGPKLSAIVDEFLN

[2] = molecular target: T2, Psm3 (GAL4 DNA-binding domain bait, pGBKT7) (S. pombe) (UniProt O42649); test: as above
T2 sequence: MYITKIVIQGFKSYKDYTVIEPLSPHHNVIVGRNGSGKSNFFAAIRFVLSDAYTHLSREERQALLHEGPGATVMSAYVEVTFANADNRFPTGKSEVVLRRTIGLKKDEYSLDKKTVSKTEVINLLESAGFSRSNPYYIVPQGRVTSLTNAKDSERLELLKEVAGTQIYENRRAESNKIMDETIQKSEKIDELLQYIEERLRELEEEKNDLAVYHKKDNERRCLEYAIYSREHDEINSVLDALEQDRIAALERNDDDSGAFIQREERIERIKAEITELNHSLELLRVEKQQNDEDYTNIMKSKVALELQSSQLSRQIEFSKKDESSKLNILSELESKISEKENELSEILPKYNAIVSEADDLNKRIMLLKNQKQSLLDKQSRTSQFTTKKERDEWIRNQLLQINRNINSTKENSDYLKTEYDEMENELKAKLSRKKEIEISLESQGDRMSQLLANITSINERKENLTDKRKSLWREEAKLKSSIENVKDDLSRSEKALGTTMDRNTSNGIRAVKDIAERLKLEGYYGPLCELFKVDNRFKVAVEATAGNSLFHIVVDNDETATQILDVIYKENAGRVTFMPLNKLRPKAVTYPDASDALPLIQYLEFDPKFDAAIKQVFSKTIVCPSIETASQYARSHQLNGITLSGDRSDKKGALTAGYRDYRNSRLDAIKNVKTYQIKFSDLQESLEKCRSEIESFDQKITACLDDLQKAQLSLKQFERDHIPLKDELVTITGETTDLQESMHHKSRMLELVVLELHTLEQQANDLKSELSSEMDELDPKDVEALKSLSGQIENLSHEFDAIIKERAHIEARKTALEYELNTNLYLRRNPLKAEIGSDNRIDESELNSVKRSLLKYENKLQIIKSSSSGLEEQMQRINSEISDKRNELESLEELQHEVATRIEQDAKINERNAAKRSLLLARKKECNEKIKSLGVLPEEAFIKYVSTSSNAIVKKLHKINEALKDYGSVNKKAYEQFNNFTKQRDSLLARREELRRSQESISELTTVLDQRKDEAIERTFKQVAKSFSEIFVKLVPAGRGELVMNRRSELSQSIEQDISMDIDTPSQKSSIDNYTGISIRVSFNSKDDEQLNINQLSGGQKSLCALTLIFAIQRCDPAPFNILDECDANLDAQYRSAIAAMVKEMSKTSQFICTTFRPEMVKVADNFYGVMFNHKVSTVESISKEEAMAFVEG

Psm1–Pk (S. pombe) = molecular target: T3, Psm1–Pk (S. pombe) (UniProt O94383); test: co-IP; protein extracts of S. pombe cells expressing Psm1–Pk and Mus81–Myc, grown in YES or YES plus 0.01% MMS for 3 h; anti-V5 agarose beads for 4 h to bind Psm1–Pk; blotted against the Pk and Myc tags
T3 sequence: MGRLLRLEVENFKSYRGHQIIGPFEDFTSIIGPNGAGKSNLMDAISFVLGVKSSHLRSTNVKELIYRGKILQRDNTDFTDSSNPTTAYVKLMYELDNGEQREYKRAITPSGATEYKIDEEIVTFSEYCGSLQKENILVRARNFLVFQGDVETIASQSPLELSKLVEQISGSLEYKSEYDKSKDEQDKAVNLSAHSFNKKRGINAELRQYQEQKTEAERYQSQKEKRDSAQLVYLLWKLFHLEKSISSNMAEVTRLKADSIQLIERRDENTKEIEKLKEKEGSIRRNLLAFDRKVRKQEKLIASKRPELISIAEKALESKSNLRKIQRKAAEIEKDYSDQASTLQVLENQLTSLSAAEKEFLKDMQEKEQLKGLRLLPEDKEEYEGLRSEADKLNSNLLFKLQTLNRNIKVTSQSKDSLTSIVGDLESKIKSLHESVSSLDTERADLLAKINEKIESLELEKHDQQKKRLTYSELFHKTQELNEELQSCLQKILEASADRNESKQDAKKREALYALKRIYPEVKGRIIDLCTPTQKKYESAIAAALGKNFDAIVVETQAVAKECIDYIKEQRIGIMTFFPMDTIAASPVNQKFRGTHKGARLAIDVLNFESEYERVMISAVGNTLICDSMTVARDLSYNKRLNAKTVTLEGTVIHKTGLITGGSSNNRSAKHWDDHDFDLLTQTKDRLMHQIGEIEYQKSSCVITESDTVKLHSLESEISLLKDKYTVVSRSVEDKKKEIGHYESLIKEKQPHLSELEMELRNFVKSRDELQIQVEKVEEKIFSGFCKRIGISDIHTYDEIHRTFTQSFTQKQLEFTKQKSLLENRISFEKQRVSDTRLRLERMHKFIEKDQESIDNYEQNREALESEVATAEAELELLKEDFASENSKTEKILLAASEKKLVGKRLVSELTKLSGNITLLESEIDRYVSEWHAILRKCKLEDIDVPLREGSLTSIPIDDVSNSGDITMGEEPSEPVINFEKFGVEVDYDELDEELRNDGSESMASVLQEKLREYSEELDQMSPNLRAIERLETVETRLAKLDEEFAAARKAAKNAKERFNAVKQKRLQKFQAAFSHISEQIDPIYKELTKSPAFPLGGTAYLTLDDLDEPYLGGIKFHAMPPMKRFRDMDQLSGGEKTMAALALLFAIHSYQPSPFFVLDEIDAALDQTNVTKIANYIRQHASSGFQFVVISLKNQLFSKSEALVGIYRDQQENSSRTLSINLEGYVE

binding [1]: binds weakly
B1: Eme1 (GAL4 activation domain prey, pGADT7) (protein, UniProt Q9C103 1-735)
chain: MTLQSTDSAIVIDSEADVDISSSQASPSKDNIALSEHNVITVLDTPQRSTQCDSLLKSFSTPLVSGSEDVLPSPRDALNITNKKSVTDNLLLSLTSSNQSTNTNLNPSSRVEIINLNSSPPNSLSSQPKHQEFHLFHTPTIPRTTQLSSKTSSPIVIPDDNEQVASPLSKKAASLTSSPLKDFQSSPPLSTVLQKSHSLHDILLDTNDDDHFPFTQSPLTKTKSFNDALTSSSSILKPCMPSIASPTSNRLSHAPSTPNLFPNQDSSNTIDLINNRSKTSVENQERTFNLTSDVHLDSPTSPSKHSSIEPNTSQEDSFQELPSLNKLSIQSRAFKKMRLPKISRTTDTPPASTSNSNKKNLDKLKKMRKLCSRSLEPYELDSNTQRKRKRYEDSLKKSKTLDKVDSLNRKMAKELDRKNSKELQKINKVKRTKEECLSEIILLSPDDWASSWYSTVRSQLDSYNCQFVVNSNQPKDSIMWKRKVNNVFNSSTNRFELSIEHEQIEPFALLRLKCRDFIKYIEEDQADTFFHEMSEKFKGCKLILLLEGIPNYFKSLKAELNRQYAAAVNSGTRPLLFGSLSKYQNFTKEKLESEIVRFSFEHSILINTSNDEKETAQWIVSFTGDIALSRYKHFSKFSARASTTEIGHVKSADRIENSLNFMLRQILRVTPNIANAICDQFDSIPSLIHHLKTHGEESLTNVVIQSSISERNLGPVLSRRIYNTFLCKEASSDAP

binding [2]: binds
B2: Mus81 (GAL4 activation domain prey, pGADT7) (protein, UniProt P87231 1-608)
chain: MDCGNPLFLQWIQEWMEESTRRFPKSYQTWRKAYDSMKSCPITFHRPSQALALKGIGPTICAKLEKKWNAYCLENNIPISTHNEQNDSHVNANKSSSETSSEKPRSVKKPTTRKRKVYVPSYRSGAYSILCALYMLNKHEFATKPQIVTMAQPYCDSSFGSATDRNMRYTAWSAMKTLITKNLVYQTGHPSKYCLTDDGEEVCIRLAKVDDSFQRKHTVSNFSVSKSDDHDSSLCQPPNFVTSINKAGSSSDHGGELHVTYCPVDHNEVSDGVETDIDVDQVDSLTGIHDHHIINNEQLIDLTEQEKKQPNESNLSNLKIETVLFSNCTVFLLIDTREIRSPLDRNLIIDKLTNDFGVNCQVRSLELGDALWVARDMESGQEVVLDFVVERKRYDDLVASIKDGRFHEQKARLKKSGIRSVTYILEESSYDESFTESIRTAVSNTQVDQLFHVRHTRSLEHSVSLLAEMTKQINLFYEKRKTLAVIPDLSIEAKTYESLREQLLKIDPSTPYHISYHAFSSVLSKSSTLTVGDIFIRMLMTIKGISASKAIEIQKKYPTFMHLFEAYEKSSSSQERNLLLNKTCQGYGFQTIGPALSAKVASVFFPES

binding (Psm1–Pk (S. pombe)): binds
B3: Mus81–Myc (protein, UniProt P87231 1-608)
chain: MDCGNPLFLQWIQEWMEESTRRFPKSYQTWRKAYDSMKSCPITFHRPSQALALKGIGPTICAKLEKKWNAYCLENNIPISTHNEQNDSHVNANKSSSETSSEKPRSVKKPTTRKRKVYVPSYRSGAYSILCALYMLNKHEFATKPQIVTMAQPYCDSSFGSATDRNMRYTAWSAMKTLITKNLVYQTGHPSKYCLTDDGEEVCIRLAKVDDSFQRKHTVSNFSVSKSDDHDSSLCQPPNFVTSINKAGSSSDHGGELHVTYCPVDHNEVSDGVETDIDVDQVDSLTGIHDHHIINNEQLIDLTEQEKKQPNESNLSNLKIETVLFSNCTVFLLIDTREIRSPLDRNLIIDKLTNDFGVNCQVRSLELGDALWVARDMESGQEVVLDFVVERKRYDDLVASIKDGRFHEQKARLKKSGIRSVTYILEESSYDESFTESIRTAVSNTQVDQLFHVRHTRSLEHSVSLLAEMTKQINLFYEKRKTLAVIPDLSIEAKTYESLREQLLKIDPSTPYHISYHAFSSVLSKSSTLTVGDIFIRMLMTIKGISASKAIEIQKKYPTFMHLFEAYEKSSSSQERNLLLNKTCQGYGFQTIGPALSAKVASVFFPES
